Where two headings read alike, the source gives them in different places. No constants are given. Whether binding was seen depends on the method and setting. In cells and extracts the contact can be indirect. Some entries that bind do so weakly or less than the wild type. For part of these data: Sequences can lack the tags named with a protein.

Sequences of proteins named here, by UniProt entry; tags and fusion partners are left off. A change or cut given only in a name is not applied to a line headed by its entry.
UniProt P43360, whole entry: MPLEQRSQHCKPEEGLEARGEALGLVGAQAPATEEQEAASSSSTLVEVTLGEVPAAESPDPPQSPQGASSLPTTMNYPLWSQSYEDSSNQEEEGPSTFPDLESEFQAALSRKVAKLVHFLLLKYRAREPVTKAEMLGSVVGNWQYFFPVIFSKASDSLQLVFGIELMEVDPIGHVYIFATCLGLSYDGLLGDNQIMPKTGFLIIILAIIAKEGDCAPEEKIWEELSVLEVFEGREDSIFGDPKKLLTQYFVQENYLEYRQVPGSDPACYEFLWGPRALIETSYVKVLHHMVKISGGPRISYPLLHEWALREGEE
UniProt Q13263, whole entry: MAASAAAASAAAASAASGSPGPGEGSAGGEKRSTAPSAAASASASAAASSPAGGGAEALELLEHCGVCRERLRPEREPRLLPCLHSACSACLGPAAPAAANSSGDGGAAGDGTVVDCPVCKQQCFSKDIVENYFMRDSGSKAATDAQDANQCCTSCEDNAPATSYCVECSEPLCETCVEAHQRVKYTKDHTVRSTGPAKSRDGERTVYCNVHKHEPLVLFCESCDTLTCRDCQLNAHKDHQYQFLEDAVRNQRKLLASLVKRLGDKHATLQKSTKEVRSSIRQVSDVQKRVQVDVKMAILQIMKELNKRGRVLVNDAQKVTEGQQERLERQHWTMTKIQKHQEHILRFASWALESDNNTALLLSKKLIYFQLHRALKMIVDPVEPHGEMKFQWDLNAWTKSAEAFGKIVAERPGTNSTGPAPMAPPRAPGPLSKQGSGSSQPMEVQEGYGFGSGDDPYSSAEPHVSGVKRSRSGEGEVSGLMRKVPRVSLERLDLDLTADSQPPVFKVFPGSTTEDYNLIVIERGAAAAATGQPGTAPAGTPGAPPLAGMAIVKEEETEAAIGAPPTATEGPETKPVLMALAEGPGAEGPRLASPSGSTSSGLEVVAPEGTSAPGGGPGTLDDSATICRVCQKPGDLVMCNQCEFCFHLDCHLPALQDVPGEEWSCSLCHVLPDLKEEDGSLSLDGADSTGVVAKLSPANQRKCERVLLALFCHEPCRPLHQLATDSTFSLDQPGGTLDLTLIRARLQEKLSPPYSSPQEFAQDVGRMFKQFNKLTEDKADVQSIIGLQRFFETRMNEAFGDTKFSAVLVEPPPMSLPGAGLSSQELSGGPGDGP

In article doi:10.1101/2025.11.21.689678 (bioRxiv, 2025) one finds binding data, which are given here for two molecules.

Assay in all cases: co-IP
Assay [1] addresses T1, ALKBH2(H171A/D173A) (human) (UniProt Q6NS38).
T1 sequence: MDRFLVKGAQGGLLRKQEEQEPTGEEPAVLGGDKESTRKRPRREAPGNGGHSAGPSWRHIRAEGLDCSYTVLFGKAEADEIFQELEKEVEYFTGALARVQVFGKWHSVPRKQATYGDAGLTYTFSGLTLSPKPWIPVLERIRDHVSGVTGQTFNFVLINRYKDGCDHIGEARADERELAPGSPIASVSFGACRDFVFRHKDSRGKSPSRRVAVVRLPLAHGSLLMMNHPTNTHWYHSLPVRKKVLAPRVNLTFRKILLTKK

Assay [2] deals with T2, Flag-ALKBH2 (HEK293T) (human) (UniProt Q6NS38).
T2 sequence: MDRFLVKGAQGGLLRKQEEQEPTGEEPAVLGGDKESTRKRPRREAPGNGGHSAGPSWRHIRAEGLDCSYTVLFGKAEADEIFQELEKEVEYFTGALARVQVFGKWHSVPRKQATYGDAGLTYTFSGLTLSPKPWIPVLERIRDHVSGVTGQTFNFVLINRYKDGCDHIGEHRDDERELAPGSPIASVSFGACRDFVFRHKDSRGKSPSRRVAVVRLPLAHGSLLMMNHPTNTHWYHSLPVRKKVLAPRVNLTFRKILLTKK

Assay [3] has as its target Flag-MAGEA6 (WT) (human (cDNA from A549 cells)) (UniProt P43360).
Assay [4] has as its target T3, Flag-TRIM24 (UniProt O15164).
T3 sequence: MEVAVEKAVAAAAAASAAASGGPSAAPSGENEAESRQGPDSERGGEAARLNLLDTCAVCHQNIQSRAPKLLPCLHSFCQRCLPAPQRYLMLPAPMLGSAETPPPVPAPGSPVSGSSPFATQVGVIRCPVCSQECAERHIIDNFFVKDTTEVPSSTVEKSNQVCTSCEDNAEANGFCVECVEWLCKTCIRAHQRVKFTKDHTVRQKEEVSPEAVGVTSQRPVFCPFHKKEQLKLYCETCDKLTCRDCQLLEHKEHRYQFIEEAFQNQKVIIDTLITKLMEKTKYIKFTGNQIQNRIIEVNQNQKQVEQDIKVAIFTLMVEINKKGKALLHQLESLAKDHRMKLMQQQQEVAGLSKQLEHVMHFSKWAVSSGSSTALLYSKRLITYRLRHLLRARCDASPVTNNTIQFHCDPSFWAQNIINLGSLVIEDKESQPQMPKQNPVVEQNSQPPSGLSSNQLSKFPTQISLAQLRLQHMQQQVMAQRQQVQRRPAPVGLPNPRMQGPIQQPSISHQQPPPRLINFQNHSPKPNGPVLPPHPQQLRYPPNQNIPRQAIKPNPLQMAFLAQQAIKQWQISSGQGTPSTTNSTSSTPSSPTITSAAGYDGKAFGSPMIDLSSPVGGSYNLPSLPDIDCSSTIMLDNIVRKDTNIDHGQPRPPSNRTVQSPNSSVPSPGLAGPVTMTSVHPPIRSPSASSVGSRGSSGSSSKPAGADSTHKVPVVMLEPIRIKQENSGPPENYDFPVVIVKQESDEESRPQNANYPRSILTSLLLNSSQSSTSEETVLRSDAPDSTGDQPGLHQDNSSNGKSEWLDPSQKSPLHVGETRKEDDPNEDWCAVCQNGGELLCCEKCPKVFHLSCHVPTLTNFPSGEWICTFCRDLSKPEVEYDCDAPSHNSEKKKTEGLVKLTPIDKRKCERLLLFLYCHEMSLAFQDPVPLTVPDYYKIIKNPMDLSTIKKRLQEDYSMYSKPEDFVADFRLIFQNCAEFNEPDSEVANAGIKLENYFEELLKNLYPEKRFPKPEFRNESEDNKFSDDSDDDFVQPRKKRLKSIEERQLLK

The target in assay [5] is T2, Flag-ALKBH2 (HEK293T) (human). The source holds these as a separate data set.
The target in assay [6] is Flag-MAGEA6 (WT) (human (cDNA from A549 cells)) (UniProt P43360). The source holds these as a separate data set.
The target of assay [7] is Flag-MAGEA6 K211R (human (cDNA from A549 cells)) (UniProt P43360).
Assay [8] has as its target T3, Flag-TRIM24. This is another data set of the same source.
Assay [9] concerns the target Flag-TRIM28 (HEK293T) (human) (UniProt Q13263).

Take “endogenous TRIM28 (HEK293T) (from UniProt Q13263 1-835)”: the binding result (in assay [1]; in assay [2]; in assay [3]; in the assay with Flag-TRIM24 [4]; in assay [5]) was “binds” in each case.

B1: HA-ALKBH2 (HEK293T) (protein, UniProt Q6NS38 1-261)
chain: MDRFLVKGAQGGLLRKQEEQEPTGEEPAVLGGDKESTRKRPRREAPGNGGHSAGPSWRHIRAEGLDCSYTVLFGKAEADEIFQELEKEVEYFTGALARVQVFGKWHSVPRKQATYGDAGLTYTFSGLTLSPKPWIPVLERIRDHVSGVTGQTFNFVLINRYKDGCDHIGEHRDDERELAPGSPIASVSFGACRDFVFRHKDSRGKSPSRRVAVVRLPLAHGSLLMMNHPTNTHWYHSLPVRKKVLAPRVNLTFRKILLTKK
B1: the binding entry is “binds” in assay [6], “binds” in [7], “no binding” in the assay with Flag-TRIM24 [8] and “binds” in [9].
